# PubChem BioAssay AID1259308 | NCATS – 2017
# Assay: 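Genes whose loss raises luciferase production in HEK293 cells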 (primary screen)
# Cells: human HEK293 embryonic kidney cells stably expressing firefly luciferase (HEK-CMV-Luc2-Hygro)
# Reagent: single siRNA against human genes, 0.8 pmol siRNA per well
# Duration: 72 h
# Measurement: 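Reporter luminescence and viable-cell signal on separate replicate plates, given as percent of non-targeting control and median/MAD z-scores, plus per-cell luciferase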
# Scale: total luciferase, z-score and total luciferase, % of control: higher = more reporter protein produced; luciferase per cell, z-score: higher = more reporter output per viable cell
# Rule for the call: 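Active when the median/MAD z-score for overall luciferase is greater than 3; a gene was taken forward for validation with new siRNAs if at least two of its three siRNAs passed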
# Calls: active = raised luciferase; inactive = no rise
# Here is one part, drawn at random, of about 59,000 reagents. Of all reagents, about 1,510 (2.6%) are marked active. 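Calls use total luciferase alone and ignore viability, so some active siRNAs may act by altering cell number.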 Reagents against one gene are numbered here. Further read-outs or replicates are left out here.
gene,siRNA no.,"total luciferase, z-score","total luciferase, % of control","luciferase per cell, z-score",Call
PUM3 (pumilio RNA binding family member 3),1,-0.479,72.4,-0.101,inactive
PUM3 (pumilio RNA binding family member 3),2,0.854,98.9,1.41,inactive
PUM3 (pumilio RNA binding family member 3),3,1.56,113,1.24,inactive
PARP6 (poly(ADP-ribose) polymerase family member 6),1,0.00782,82,0.0743,inactive
PARP6 (poly(ADP-ribose) polymerase family member 6),2,0.838,98.5,0.806,inactive
PARP6 (poly(ADP-ribose) polymerase family member 6),3,2.06,123,0.844,inactive
FCMR (Fc mu receptor),1,1.26,107,0.518,inactive
FCMR (Fc mu receptor),2,-0.229,77.3,-0.619,inactive
FCMR (Fc mu receptor),3,1.57,113,0.237,inactive
LAMP1 (lysosome associated membrane protein 1),1,0.0163,82.2,-0.307,inactive
LAMP1 (lysosome associated membrane protein 1),2,1.04,103,0.808,inactive
LAMP1 (lysosome associated membrane protein 1),3,-1.11,59.7,-1.12,inactive
IL1RN (interleukin 1 receptor antagonist),1,-0.313,75.7,-0.731,inactive
IL1RN (interleukin 1 receptor antagonist),2,-0.586,70.2,-0.502,inactive
IL1RN (interleukin 1 receptor antagonist),3,-0.623,69.5,-0.146,inactive
LOC729532 (zinc finger protein 207 pseudogene),1,1.24,107,1.37,inactive
LOC729532 (zinc finger protein 207 pseudogene),2,0.982,101,2.04,inactive
LOC729532 (zinc finger protein 207 pseudogene),3,-0.896,64.1,-0.282,inactive
MEIS3 (Meis homeobox 3),1,1.05,103,0.988,inactive
MEIS3 (Meis homeobox 3),2,-0.322,75.5,-0.361,inactive
MEIS3 (Meis homeobox 3),3,3.78,157,3.3,active
IL13RA1 (interleukin 13 receptor subunit alpha 1),1,-0.898,64,-0.713,inactive
IL13RA1 (interleukin 13 receptor subunit alpha 1),2,-0.772,66.5,-0.538,inactive
IL13RA1 (interleukin 13 receptor subunit alpha 1),3,0.0718,83.3,-0.295,inactive
PDGFRA (platelet derived growth factor receptor alpha),1,0.199,85.8,0.132,inactive
PDGFRA (platelet derived growth factor receptor alpha),2,-1.2,58,-1.3,inactive
PDGFRA (platelet derived growth factor receptor alpha),3,-1.06,60.8,-1.27,inactive
MPC2,1,0.98,101,0.994,inactive
MPC2,2,0.0752,83.4,-0.351,inactive
MPC2,3,0.0269,82.4,-1.01,inactive
SIX5 (SIX homeobox 5),1,2.06,123,1.36,inactive
SIX5 (SIX homeobox 5),2,1.29,107,1.24,inactive
SIX5 (SIX homeobox 5),3,0.54,92.6,0.0884,inactive
MTMR8 (myotubularin related protein 8),1,0.943,101,1.23,inactive
MTMR8 (myotubularin related protein 8),2,-0.253,76.9,0.804,inactive
MTMR8 (myotubularin related protein 8),3,0.702,95.8,0.874,inactive
PITPNA (phosphatidylinositol transfer protein alpha),1,0.838,98.5,0.559,inactive
PITPNA (phosphatidylinositol transfer protein alpha),2,-0.533,71.3,0.107,inactive
PITPNA (phosphatidylinositol transfer protein alpha),3,-1.31,55.8,-1.84,inactive
FCAMR (Fc alpha and mu receptor),1,1.43,110,1,inactive
FCAMR (Fc alpha and mu receptor),2,2.07,123,2.1,inactive
FCAMR (Fc alpha and mu receptor),3,-0.237,77.2,-0.735,inactive
FLCN (folliculin),1,-0.337,75.2,0.0903,inactive
FLCN (folliculin),2,-0.526,71.4,-0.68,inactive
FLCN (folliculin),3,-0.774,66.5,-0.208,inactive
MAGEB4 (MAGE family member B4),1,-0.141,79.1,-0.375,inactive
MAGEB4 (MAGE family member B4),2,1.59,114,1.87,inactive
MAGEB4 (MAGE family member B4),3,0.173,85.3,-0.546,inactive
CAST (calpastatin),1,-2.44,33.3,-1.49,inactive
CAST (calpastatin),2,-0.794,66.1,-0.104,inactive
CAST (calpastatin),3,1.13,104,1.21,inactive
LRRC28 (leucine rich repeat containing 28),1,0.501,91.9,0.327,inactive
LRRC28 (leucine rich repeat containing 28),2,-0.52,71.5,0.746,inactive
LRRC28 (leucine rich repeat containing 28),3,-0.753,66.9,-1.28,inactive
MYH3 (myosin heavy chain 3),1,-1.02,61.6,-1.14,inactive
MYH3 (myosin heavy chain 3),2,-0.17,78.5,0.188,inactive
MYH3 (myosin heavy chain 3),3,0.0425,82.7,0.293,inactive
